The experiment addresses T1, FLAG-tagged murine DGAT1 (mouse) (UniProt Q9Z2A7).
T1 sequence: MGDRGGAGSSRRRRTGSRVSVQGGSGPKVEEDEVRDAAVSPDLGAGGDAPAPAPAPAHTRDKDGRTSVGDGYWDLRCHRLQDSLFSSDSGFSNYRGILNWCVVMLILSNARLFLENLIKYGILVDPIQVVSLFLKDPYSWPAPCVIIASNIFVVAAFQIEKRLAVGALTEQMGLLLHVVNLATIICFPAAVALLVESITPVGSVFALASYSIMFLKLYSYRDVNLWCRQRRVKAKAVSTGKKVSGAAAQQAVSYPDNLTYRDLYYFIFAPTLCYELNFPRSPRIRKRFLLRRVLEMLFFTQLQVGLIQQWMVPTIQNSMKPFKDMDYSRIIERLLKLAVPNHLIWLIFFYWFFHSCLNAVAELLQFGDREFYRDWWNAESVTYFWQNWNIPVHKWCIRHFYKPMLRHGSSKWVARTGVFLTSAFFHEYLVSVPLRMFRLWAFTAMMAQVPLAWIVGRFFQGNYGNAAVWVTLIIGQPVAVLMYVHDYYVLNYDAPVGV
As to the kind of experiment: co-IP; HEK293T co-transfected with both plasmids, lysed 2 days after transfection in 1% NP-40 lysis buffer (50 mM Tris pH 7.4, 150 mM NaCl); pre-cleared with rProtein G agarose; FLAG-specific immunoprecipitation with anti-FLAG M2 affinity gel, 2.5 h at 4 °C; 4 washes; immunoblot. A general note: A western blot detects proteins with antibodies after separation by electrophoresis.

Chains of the proteins cited; added tags and fusions are not shown. Residues count along the entry.
UniProt Q32ZE1, residues 1-104: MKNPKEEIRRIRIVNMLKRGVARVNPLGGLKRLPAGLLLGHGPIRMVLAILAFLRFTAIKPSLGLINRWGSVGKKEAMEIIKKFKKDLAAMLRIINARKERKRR

These are yes or no findings as the source states them, for the method shown. In cells and extracts the contact can be indirect. Some entries that bind do so weakly or less than the wild type. Sequences can lack the tags named with a protein.

“ZIKV Uganda 1947 MR766 C (-anchor)-2x Strep II (from UniProt Q32ZE1 1-104)”: the binding entry was “binds”.
